The values that follow come from article PMC6794296.

The chains behind the UniProt entries cited, without tags or fusion partners.
UniProt O60331: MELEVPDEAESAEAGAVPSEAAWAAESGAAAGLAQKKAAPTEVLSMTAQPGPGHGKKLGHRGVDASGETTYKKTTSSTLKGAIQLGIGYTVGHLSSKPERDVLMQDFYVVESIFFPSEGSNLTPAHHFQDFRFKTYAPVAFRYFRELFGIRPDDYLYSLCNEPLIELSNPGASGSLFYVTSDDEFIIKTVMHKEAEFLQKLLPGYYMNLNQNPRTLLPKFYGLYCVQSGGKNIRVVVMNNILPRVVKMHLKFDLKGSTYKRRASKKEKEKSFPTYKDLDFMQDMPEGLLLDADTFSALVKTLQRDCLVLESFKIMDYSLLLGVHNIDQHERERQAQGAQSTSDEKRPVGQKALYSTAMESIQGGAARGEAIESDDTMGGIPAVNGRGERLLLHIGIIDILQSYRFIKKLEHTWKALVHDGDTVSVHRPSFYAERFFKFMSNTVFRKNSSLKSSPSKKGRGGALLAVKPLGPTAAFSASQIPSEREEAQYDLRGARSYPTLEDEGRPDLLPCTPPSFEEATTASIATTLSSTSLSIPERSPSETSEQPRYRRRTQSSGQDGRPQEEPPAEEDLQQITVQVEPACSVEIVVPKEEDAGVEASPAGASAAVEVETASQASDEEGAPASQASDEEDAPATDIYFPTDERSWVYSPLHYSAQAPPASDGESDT
UniProt Q99755: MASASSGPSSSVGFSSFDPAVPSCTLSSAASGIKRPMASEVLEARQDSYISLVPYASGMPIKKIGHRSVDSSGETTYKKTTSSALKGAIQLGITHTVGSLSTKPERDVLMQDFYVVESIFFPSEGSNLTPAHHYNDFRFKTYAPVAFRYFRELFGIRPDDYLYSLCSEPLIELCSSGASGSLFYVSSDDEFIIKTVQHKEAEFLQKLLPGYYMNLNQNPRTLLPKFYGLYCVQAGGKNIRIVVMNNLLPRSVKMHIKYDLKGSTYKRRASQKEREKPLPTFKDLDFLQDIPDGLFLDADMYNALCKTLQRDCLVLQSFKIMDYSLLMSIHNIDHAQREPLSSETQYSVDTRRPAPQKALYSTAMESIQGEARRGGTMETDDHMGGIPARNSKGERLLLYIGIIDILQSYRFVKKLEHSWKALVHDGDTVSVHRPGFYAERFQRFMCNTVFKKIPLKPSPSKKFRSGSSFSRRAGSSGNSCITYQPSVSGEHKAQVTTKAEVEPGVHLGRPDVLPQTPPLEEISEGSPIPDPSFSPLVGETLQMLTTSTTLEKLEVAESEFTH
UniProt O14986: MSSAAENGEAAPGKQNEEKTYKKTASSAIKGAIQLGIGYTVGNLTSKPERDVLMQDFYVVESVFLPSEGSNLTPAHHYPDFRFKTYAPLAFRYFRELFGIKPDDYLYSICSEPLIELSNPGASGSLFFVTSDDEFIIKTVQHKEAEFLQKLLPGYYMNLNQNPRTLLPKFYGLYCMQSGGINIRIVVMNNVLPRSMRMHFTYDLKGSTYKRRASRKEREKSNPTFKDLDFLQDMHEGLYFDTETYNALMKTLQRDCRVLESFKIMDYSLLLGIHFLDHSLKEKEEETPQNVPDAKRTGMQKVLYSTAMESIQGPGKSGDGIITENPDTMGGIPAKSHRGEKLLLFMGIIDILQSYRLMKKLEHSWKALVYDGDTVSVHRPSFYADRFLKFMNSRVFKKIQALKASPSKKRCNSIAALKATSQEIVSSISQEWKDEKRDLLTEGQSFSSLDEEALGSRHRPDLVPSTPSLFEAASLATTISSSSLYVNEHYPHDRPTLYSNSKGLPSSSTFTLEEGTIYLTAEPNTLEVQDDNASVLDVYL

Results are given in words; binding and its absence hold for the method and conditions named. In cells and extracts the contact can be indirect. Some results given as binding are weak or reduced against the parent protein; the word gives no strength. Sequences can lack the tags named with a protein.

The experiment concerns the target T1, mCherry-tagged phosphatidylinositol 4-phosphate 5-kinase homolog (PIPKH) (human) (UniProt Q5T9C9).
T1 sequence: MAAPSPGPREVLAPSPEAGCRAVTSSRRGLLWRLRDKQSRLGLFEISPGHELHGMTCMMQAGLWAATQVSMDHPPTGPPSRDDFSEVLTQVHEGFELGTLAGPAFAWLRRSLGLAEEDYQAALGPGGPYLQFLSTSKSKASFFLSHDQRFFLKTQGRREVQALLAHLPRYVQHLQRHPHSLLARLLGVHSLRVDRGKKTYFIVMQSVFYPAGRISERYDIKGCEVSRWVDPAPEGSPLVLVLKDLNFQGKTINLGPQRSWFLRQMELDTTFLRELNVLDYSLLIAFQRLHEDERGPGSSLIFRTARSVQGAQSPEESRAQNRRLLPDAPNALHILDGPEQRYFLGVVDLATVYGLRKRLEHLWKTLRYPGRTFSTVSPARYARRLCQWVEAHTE
Nature of the experiment: FRET or BRET; FLIM-FRET in CHO cells transiently co-transfected; donor GFP or YFP on PIP5K or Rab protein, acceptor mCherry on PIPKH; lifetime of the donor with and without the acceptor. (In general: BRET reads energy transfer from a luciferase to a nearby fluorophore.)
As for “GFP-PIP5Kγ90 (from UniProt O60331 1-668) (enzyme)”, the binding result is listed as “binds”. With “YFP-PIP5Kα (from UniProt Q99755 1-562) (enzyme)”, the binding entry was “binds”. As to “YFP-PIP5Kβ (from UniProt O14986 1-540) (enzyme)”, the binding result is “binds”.
